Experimental data published in publication PMC11357397 (Pharmaceuticals, 2024).

Experiment: general procedure: Fmoc solid-phase peptide synthesis; H-His-(Trt)-Cl-2-chlorotrityl resin (loading capacity = 0.724 mmol/g); HCTU, DIPEA
Settings: whole synthesis, analytical HPLC, scale of the general procedure 0.50 mmol

Substance: PEPTIDE1{W.R.H.W.R.H.W.R.H}$$$$V2.0
- final HPLC purity: 95.741%

Strings that start with PEPTIDE1 are HELM notation: dots part the residues, brackets hold end groups and non-standard residues.
